Measurements reported in PMC5451130.
These are yes or no findings as the source states them, for the method shown. In cells and extracts the contact can be indirect. Some entries that bind do so weakly or less than the wild type.

Protein sequences, listed by entry. Tags and fused reporters are not part of them. Lines headed by an entry give the natural chain unless they say otherwise; changes in a name come on top. Residues count along the entry.
UniProt P06756: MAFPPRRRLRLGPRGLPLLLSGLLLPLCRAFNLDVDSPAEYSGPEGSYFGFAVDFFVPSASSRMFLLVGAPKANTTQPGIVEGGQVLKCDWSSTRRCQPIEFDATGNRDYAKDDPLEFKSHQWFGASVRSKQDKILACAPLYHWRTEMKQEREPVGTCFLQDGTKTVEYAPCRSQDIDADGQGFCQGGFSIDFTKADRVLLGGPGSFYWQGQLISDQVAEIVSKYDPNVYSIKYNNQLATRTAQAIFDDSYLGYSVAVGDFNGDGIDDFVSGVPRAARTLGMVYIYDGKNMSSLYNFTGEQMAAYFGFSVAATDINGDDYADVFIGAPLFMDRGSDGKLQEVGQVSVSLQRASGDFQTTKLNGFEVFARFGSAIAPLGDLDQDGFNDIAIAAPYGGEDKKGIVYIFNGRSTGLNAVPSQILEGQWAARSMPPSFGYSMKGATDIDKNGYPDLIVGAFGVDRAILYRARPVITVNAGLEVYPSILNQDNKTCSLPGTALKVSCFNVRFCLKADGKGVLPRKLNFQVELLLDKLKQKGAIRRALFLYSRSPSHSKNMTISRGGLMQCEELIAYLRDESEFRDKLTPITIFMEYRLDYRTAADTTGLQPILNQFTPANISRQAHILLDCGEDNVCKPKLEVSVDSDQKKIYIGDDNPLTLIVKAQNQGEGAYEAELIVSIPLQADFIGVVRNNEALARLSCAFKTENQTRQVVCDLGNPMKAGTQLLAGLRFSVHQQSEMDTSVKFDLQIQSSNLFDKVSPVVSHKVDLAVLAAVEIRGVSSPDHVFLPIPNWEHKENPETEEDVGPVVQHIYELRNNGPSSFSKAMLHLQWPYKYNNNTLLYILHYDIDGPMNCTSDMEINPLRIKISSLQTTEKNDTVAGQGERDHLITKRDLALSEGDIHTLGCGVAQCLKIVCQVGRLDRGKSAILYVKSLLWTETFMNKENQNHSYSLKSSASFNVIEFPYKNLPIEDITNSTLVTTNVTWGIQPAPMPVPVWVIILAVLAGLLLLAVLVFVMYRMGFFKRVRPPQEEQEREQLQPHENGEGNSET
UniProt P08648: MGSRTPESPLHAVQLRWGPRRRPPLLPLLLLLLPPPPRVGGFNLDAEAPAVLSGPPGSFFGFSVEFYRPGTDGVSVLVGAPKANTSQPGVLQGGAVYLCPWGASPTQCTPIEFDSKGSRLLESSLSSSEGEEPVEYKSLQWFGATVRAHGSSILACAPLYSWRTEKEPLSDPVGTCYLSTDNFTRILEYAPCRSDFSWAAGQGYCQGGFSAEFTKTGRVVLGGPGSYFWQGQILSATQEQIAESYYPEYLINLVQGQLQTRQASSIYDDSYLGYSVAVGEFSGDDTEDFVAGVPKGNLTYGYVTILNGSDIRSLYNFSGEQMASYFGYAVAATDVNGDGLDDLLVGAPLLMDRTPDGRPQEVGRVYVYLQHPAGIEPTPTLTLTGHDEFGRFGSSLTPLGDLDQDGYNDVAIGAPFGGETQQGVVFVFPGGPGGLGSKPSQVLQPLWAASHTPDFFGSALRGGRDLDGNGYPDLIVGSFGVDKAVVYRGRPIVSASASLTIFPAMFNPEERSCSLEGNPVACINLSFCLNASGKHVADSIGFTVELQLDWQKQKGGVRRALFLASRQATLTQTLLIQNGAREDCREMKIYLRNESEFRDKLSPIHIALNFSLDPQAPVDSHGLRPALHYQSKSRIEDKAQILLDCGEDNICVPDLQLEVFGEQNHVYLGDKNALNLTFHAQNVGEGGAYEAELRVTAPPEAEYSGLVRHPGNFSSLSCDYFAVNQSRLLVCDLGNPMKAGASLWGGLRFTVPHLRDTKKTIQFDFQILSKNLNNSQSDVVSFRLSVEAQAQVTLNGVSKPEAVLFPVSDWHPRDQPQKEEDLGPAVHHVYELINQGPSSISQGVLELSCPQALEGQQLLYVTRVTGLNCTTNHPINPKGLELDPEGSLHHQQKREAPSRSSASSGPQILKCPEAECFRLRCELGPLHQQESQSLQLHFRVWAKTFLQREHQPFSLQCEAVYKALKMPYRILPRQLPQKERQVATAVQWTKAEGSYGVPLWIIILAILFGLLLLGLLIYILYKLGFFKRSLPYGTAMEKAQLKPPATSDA
UniProt P35590, residues 22-1138: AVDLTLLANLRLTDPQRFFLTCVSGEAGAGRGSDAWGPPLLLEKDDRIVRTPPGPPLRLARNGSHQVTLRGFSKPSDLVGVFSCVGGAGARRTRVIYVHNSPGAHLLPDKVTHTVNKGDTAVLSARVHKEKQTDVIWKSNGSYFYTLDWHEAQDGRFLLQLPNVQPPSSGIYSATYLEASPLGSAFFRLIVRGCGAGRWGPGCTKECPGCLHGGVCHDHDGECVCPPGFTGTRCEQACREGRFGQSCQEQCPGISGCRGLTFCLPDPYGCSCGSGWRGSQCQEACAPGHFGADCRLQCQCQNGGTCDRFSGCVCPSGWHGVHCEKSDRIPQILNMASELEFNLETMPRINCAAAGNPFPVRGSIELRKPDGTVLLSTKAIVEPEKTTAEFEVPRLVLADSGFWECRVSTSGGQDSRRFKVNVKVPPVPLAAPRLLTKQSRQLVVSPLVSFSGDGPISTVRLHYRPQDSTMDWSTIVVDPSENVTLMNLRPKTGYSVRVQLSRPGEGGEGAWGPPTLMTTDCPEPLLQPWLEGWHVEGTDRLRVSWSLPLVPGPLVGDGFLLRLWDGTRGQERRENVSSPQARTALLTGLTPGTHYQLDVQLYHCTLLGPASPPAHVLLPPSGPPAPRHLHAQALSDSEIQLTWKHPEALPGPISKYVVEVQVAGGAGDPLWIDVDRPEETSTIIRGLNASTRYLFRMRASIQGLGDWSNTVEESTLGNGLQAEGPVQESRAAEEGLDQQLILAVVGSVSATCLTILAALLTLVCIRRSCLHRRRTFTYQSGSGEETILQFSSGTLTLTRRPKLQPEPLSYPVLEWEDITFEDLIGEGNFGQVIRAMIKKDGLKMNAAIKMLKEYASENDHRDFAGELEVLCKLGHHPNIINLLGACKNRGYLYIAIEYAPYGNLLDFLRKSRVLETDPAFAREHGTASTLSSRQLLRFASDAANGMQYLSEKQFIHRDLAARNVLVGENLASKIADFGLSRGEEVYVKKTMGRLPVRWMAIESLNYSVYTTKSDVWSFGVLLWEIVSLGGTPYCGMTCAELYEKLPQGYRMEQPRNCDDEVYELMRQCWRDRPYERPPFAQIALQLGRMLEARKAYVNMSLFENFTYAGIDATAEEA
UniProt Q02763, residues 23-1124: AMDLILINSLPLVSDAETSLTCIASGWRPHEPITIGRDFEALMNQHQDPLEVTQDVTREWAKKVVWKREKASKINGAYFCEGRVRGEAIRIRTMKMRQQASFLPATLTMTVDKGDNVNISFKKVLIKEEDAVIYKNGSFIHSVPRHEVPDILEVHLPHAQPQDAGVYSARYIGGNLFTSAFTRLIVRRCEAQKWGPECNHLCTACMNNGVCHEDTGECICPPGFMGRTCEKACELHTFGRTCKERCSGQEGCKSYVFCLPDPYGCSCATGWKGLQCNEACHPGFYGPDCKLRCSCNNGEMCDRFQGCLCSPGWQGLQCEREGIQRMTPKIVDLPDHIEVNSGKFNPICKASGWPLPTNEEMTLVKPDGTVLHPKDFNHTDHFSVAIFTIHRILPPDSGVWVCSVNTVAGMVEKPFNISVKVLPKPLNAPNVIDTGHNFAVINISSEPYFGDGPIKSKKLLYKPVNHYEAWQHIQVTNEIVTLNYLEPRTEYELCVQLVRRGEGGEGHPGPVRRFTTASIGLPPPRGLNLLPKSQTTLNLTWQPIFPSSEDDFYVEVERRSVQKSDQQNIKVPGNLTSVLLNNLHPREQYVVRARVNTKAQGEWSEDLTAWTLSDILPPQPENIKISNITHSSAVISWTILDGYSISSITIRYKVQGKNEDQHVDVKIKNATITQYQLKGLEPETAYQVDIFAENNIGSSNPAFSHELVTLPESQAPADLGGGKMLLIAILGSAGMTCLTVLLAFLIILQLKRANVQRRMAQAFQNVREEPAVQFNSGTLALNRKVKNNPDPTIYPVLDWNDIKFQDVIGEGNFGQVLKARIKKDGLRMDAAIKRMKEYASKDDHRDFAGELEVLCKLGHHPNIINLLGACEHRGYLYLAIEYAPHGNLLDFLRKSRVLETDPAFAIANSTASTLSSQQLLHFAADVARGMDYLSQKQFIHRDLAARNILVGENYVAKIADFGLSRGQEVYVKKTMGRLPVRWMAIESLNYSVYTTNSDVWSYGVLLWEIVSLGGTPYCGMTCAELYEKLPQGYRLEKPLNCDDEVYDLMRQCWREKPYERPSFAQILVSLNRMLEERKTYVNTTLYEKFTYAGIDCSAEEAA

Experiments:
[1] = molecular target: Full-length integrin αVß3 (flag-tagged) (UniProt P06756); test: co-IP; transiently transfected HEK293 cells; integrins immunoprecipitated with anti-flag antibody; co-precipitating Tie receptors detected by western blot (anti-HA, anti-myc or anti-GFP)
[2] = molecular target: Full-length integrin α5ß1 (flag-tagged) (UniProt P08648); test: as above

binding [1]	binding [2]	Substance
binds	binds	HA-tagged Tie1 receptor (from UniProt P35590 22-1138)
binds	–	myc-tagged Tie2 receptor (from UniProt Q02763 23-1124)
